The values below come from PMC4133388.

Chains of the proteins cited; added tags and fusions are not shown. Lines headed by an entry give the natural chain unless they say otherwise; changes in a name come on top. A line that says so, or that is headed by a name, gives the form on record, which may keep a tag or linker. Residues count along the entry.
UniProt P11309: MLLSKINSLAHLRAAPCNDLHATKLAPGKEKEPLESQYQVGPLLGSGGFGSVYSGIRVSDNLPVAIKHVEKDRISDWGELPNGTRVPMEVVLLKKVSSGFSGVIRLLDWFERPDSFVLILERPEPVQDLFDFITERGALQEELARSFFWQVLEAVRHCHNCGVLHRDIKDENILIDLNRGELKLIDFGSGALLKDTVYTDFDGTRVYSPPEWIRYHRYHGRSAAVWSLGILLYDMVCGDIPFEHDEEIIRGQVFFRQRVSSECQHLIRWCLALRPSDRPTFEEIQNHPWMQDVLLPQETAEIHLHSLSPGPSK
UniProt P03204: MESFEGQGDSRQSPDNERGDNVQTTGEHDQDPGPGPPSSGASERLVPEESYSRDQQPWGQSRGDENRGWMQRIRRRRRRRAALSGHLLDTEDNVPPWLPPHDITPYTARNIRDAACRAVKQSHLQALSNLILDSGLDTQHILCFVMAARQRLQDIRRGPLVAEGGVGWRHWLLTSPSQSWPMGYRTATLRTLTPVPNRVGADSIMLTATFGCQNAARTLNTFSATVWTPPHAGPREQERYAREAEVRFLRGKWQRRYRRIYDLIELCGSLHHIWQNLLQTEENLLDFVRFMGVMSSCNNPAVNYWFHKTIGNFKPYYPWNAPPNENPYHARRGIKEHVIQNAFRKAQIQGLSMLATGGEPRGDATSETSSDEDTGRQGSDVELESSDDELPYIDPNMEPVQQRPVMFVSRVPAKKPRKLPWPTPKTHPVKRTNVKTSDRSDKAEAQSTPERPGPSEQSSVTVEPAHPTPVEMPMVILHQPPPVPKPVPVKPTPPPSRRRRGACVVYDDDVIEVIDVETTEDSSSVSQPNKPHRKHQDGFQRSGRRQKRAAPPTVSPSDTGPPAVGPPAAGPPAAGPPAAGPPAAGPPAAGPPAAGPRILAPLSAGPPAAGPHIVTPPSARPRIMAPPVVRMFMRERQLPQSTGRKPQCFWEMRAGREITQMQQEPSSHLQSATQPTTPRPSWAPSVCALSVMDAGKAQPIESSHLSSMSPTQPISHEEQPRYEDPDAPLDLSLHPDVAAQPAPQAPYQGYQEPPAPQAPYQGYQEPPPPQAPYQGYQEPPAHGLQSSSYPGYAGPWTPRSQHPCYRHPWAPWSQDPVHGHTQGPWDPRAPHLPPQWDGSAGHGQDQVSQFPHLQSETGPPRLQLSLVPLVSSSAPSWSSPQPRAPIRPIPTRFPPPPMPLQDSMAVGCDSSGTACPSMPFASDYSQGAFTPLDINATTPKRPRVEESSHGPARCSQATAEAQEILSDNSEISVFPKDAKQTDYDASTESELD
Myc-tagged EBNA3C residues 1–365 (Epstein-Barr virus (strain B95-8)): residues 1-365 of P03204
GST-EBNA3C residues 130–159 (Epstein-Barr virus (strain B95-8)): residues 130-159 of P03204
UniProt P38936: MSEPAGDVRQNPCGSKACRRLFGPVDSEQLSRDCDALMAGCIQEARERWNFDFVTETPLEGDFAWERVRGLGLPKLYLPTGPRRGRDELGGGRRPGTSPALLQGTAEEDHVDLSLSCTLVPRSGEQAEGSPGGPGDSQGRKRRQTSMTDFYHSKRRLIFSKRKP

These are yes or no findings as the source states them, for the method shown. Binding seen in cells or lysates may run through a third protein. Some entries that bind do so weakly or less than the wild type.

Assay [1] has as its target endogenous Pim-1 (human (endogenous in BJAB7, BJAB10, LCL1, LCL2)) (UniProt P11309). Put plainly: co-IP; 50 million BJAB, BJAB7, BJAB10, LCL1, LCL2 cells lysed; IP with Pim-1 specific antibody; endogenous EBNA3C and Pim-1 detected by Western blot.
The target of assay [2] is GST-Pim-1 (human) (UniProt P11309). Put plainly: pull-down; BJAB, BJAB7/BJAB10 and LCL1 lysates (RIPA buffer) incubated with GST control or GST-Pim-1 beads; washed with Binding Buffer (1× PBS, 0.1% NP-40, 0.5 mM DTT, 10% glycerol); EBNA3C detected by Western blot with A10; only the target purified.
For assay [3], the target named is Myc-tagged EBNA3C residues 1–365 (Epstein-Barr virus (strain B95-8)) (UniProt P03204). Put plainly: co-IP; HEK-293 cells co-transfected by electroporation, harvested 36 hrs post-transfection, RIPA buffer lysates (0.5% NP-40, 10 mM Tris pH 7.5, 2 mM EDTA, 150 mM NaCl); IP overnight at 4°C with A10, anti-Flag (M2), anti-Myc (9E10) or GFP antibody; Western blot.
In assay [4] the target is Myc-tagged full length EBNA3C (residues 1–992) (Epstein-Barr virus (strain B95-8)) (UniProt P03204). The description is as above.
Assay [5] deals with untagged-EBNA3C (Epstein-Barr virus (strain B95-8)) (UniProt P03204). The description is as above.
For assay [6], the target named is Flag-tagged EBNA3C (Epstein-Barr virus (strain B95-8)) (UniProt P03204). The description is as above.
The next assay concerns the target Flag-tagged p21 (human) (UniProt P38936). The assay is described as above.
In assay [7] the target is GST-Pim-1 (human) (UniProt P11309). Put plainly: pull-down; S^35-radiolabeled in vitro translated EBNA3C full length and fragments, pre-cleared with GST-beads, incubated with GST control or GST-Pim-1 beads; washed with Binding Buffer; SDS-PAGE and phosphoimager; only the target purified.
Assay [8] deals with GST-EBNA3C residues 130–159 (Epstein-Barr virus (strain B95-8)) (UniProt P03204). Put plainly: pull-down; S^35-radiolabeled in vitro translated Myc-Pim-1 incubated with GST control or GST-EBNA3C truncated mutant beads; SDS-PAGE and phosphoimager; only the target purified.

On to “EBNA3C of EBV transformed lymphoblastoid cell lines (LCL1, LCL2) (from UniProt P03204 1-992)”, for which the binding entry (in assay [1]; in the assay with GST-Pim-1 (human) [2]) was “binds” throughout.

Take “EBNA3C stably expressed in BJAB cells (BJAB7, BJAB10) (from UniProt P03204 1-992)”: the binding entry (in assay [1]; with GST-Pim-1 (human) [2]) was “binds” throughout.

Consider “GFP-tagged Pim-1 (from UniProt P11309 1-313) (enzyme)”, for which the binding result in assay [3] and in assay [4] was “binds” throughout.

Take “Myc-tagged Pim-1 (from UniProt P11309 1-313) (enzyme)”: the binding result in assay [5] and in [6] was “binds” throughout.

“Myc-tagged full length EBNA3C (residues 1–992) (from UniProt P03204 1-992)”: in the assay with Flag-tagged p21 (human), the binding entry is given as “binds”.

Consider “in vitro translated EBNA3C residues 1–159 (from UniProt P03204 1-159) (domain or fragment)”, for which, in the assay with GST-Pim-1 (human) [7], the binding entry is recorded as “binds”.

In the case of “in vitro translated EBNA3C residues 1–250 (from UniProt P03204 1-250) (domain or fragment)”, the binding result with GST-Pim-1 (human) [7] is “binds”.

Consider “in vitro translated EBNA3C residues 100–200 (from UniProt P03204 100-200) (domain or fragment)”, for which the binding result in the assay with GST-Pim-1 (human) [7] is given as “binds”.

“in vitro translated EBNA3C residues 130–300 (from UniProt P03204 130-300) (domain or fragment)”: the binding result with GST-Pim-1 (human) [7] was “binds”.

For the substance “in vitro translated full length Pim-1 (Myc-Pim-1 construct) (from UniProt P11309 1-313) (enzyme)”, the binding entry in [8] is on record as “binds”.
